Measurements taken from PMC8518639 (Chemmedchem, 2021).

Assay: Caco-2 cell permeability assay
Assay type: in vitro ADME
Details: human; for Papp at 90 min, 10 μM: Caco-2, Papp

CC(C)NCC(O)COc1ccc(CC(N)=O)cc1 (centres unmarked) [Atenolol]
efflux ratio at 90 min, 10 μM (Caco-2): 2 | Papp at 90 min, 10 μM (Replicate 1, Direction A‐B): 0.5 ×10⁻⁶ cm/s | Papp at 90 min, 10 μM (Replicate 1, Direction B‐A): 0.9 ×10⁻⁶ cm/s | Papp at 90 min, 10 μM (Replicate 2, Direction A‐B): 0.4 ×10⁻⁶ cm/s | Papp at 90 min, 10 μM (Replicate 2, Direction B‐A): 1 ×10⁻⁶ cm/s
